From PubChem BioAssay AID493014 (National Center for Advancing Translational Sciences (NCATS), 2011)
The list shows a part of the results. These are further read-outs of the screen, such as a control signal, another cell line or another target. No call is given for them. Most of these compounds were active or inconclusive in the main read-out, so they are no random draw. The note in brackets gives the kind of curve behind each potency; many fits are weak.

Assay: qHTS Assay to Find Inhibitors of Chronic Active B-Cell Receptor Signaling
Details: ABC-DLBCL IkBa-CBG/CBR reporter, luminescence ratio (green luciferase fused to IkBa over red control in TMD8 lymphoma cells), 4 h
In short: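 Concentration-response series (up to 46 uM) were applied to TMD8 dual-reporter cells for 4 h at 37C with doxycycline. Green/red ratio, after filter-overlap correction, defined %Activity; red signal alone was normalised to basal cells and zero luminescence.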

[1] = measured here: CBR red luminescence, cell number
[2] = measured here: IkBa-CBG green luminescence

SMILES: CCOC(=O)c1cc2ccc(OC(=O)c3ccco3)cc2oc1=O
- AC50 [1]: 29.1 µM [falling, single point]

SMILES: CC(=O)N1N=C(c2ccc(C)cc2)CC1c1ccc2c(c1)OCO2 (configuration not stated)
- AC50 [1]: 35.5 µM [rising, single point]

SMILES: O=C(NCCc1ccccc1)C1CCN(C(=O)N2CCOc3ccccc32)CC1
- AC50 [1]: 2.82 µM [rising, single point]

SMILES: Cc1cccc(C)c1N1CCN(c2ccc3nnc(C(F)(F)F)n3n2)CC1
- AC50 [1]: 16.4 µM [falling, partial curve, poor fit]

SMILES: COc1ccc(CC(=O)Nc2cccc(-c3nnc(-c4ccccc4)o3)c2)cc1OC
- AC50 [1]: 32.6 µM [falling, single point]

SMILES: CC(C)n1ncc2c(C(=O)Nc3ccc(S(N)(=O)=O)cc3)cc(C3CC3)nc21
- AC50 [1]: 16.4 µM [rising, partial curve, poor fit]

SMILES: Nc1ccc(-c2nc3cc([N+](=O)[O-])ccc3o2)cc1
- AC50 [1]: 15.8 µM [falling, partial curve, poor fit]

SMILES: C#CCOCCOCCOCCNc1nc(N2CCN(C(=O)CCCCCCCCCCNC(=O)[C@H](CO)n3cc(CCCSC)nn3)CC2)nc(N2CCN(C(=O)CCCCCCCCCCNC(=O)[C@H](CCCCN)n3cc(CCO)nn3)CC2)n1
- AC50 [1]: 20.6 µM [rising, single point]

SMILES: CCOC(=O)c1c(CSc2ccsc2)n(C)c2cc(Br)c(O)c(CN(C)C)c12
- AC50 [1]: 35.5 µM [falling, single point]

SMILES: COCCNC(=O)c1ccccc1NC(=O)CN(c1ccc2c(c1)OCO2)S(C)(=O)=O
- AC50 [1]: 0.231 µM [rising, full curve, poor fit]

SMILES: Cc1cccc(-n2nc3c(c2NC(=O)C(C)C)CS(=O)(=O)C3)c1C
- AC50 [1]: 0.794 µM [rising, full curve, poor fit]

SMILES: Cc1cccc(C)c1-n1nnnc1SCSc1nnnn1-c1c(C)cccc1C
- AC50 [1]: 6.51 µM [rising, single point]

SMILES: CCCCOC(=O)Nc1ccc(C(=O)OC)cc1
- AC50 [1]: 3.98 µM [rising, single point]

SMILES: Cn1c(=O)n(Cc2ccccc2F)c2ccccc21
- AC50 [1]: 11.2 µM [rising, single point]

SMILES: COc1ccccc1NC(=O)CN1C(=O)COc2ccc(C)cc21
- AC50 [1]: 15.8 µM [rising, single point]

SMILES: COc1cccc(NC(=O)C(=O)NCC2CCCN2S(=O)(=O)c2ccccc2)c1 (configuration not stated)
- AC50 [1]: 29.1 µM [falling, partial curve, poor fit]

SMILES: O=C(O)COc1ccccc1/C=N/NC(=O)CN1CCN(Cc2ccc(Cl)cc2)CC1
- AC50 [1]: 6.31 µM [rising, single point]

SMILES: Cc1ccc2nc(NC(=O)c3cccs3)sc2c1
- AC50 [1]: 2.24 µM [falling, full curve]

SMILES: COc1ccc(Cn2nnc3c(C)n[nH]c(=O)c32)cc1
- AC50 [1]: 10 µM [rising, partial curve, poor fit]

SMILES: O=C(Nc1nc(-c2ccco2)c(-c2ccco2)s1)c1c(F)cccc1Cl
- AC50 [1]: 3.66 µM [falling, partial curve]

SMILES: CC(/C=N/NC(=O)c1cc(-c2cccn2C)n[nH]1)=C\c1ccccc1
- AC50 [1]: 5.01 µM [falling, partial curve, poor fit]

SMILES: O=C(C[n+]1cc(-c2ccc(F)cc2)n2c1CCC2)Nc1nc(-c2ccc(F)cc2)cs1
- AC50 [1]: 0.517 µM [falling, full curve, poor fit]

SMILES: COC(=O)Cn1cnc2c1c(=O)n(C)c(=O)n2C
- AC50 [1]: 0.731 µM [falling, full curve, poor fit]

SMILES: CC(C)c1cc(C(=O)Nc2cc(Br)ccc2O)no1
- AC50 [1]: 0.231 µM [rising, full curve, poor fit]

SMILES: O=C(N/N=C/c1cccnc1)c1ccccc1Cl
- AC50 [1]: 35.5 µM [falling, single point]

SMILES: Cc1ccc(/C=N/Nc2nc3ccccc3s2)o1
- AC50 [1]: 13 µM [falling, single point]

SMILES: Cc1cc(C(=O)NN)c(C)o1
- AC50 [1]: 10 µM [falling, partial curve]

SMILES: CC1=C(C#N)C(/C=N/OCc2ccc(Cl)cc2)CC(=O)N1 (configuration not stated)
- AC50 [1]: 3.16 µM [rising, partial curve]

SMILES: Cc1ccc(S(=O)(=O)c2c(N)n(CCC(C)C)c3nc4ccccc4nc23)cc1
- AC50 [1]: 29.1 µM [falling, single point]
- AC50 [2]: 11.6 µM [rising, partial curve, poor fit]

SMILES: C/C(N)=C(/C#N)C(=O)CSc1ccccc1F
- AC50 [1]: 20 µM [falling, single point]

SMILES: Cc1cc(C)cc(OCc2nnc(SCC(=O)OC(C)C)o2)c1
- AC50 [1]: 20.6 µM [falling, partial curve, poor fit]

SMILES: CN(C)S(=O)(=O)c1ccc(C(=O)N2CCN=C2SCc2cccnc2)cc1
- AC50 [1]: 29.1 µM [falling, single point]

SMILES: CC(=O)Nc1ccc(NS(=O)(=O)c2ccc(C)cc2)cc1[N+](=O)[O-]
- AC50 [1]: 3.98 µM [rising, single point]

SMILES: Cc1cc(NC(=O)COC(=O)CSCc2ccc(Cl)c(Cl)c2)no1
- AC50 [1]: 7.31 µM [rising, partial curve, poor fit]

SMILES: Cc1ccc(N(CC2CO2)S(=O)(=O)c2ccc([N+](=O)[O-])cc2)cc1 (configuration not stated)
- AC50 [1]: 12.6 µM [falling, partial curve, poor fit]

SMILES: Cc1nc2ccccc2n1C(=O)c1cc(-c2ccc(Br)cc2)nc2ccccc12
- AC50 [1]: 17.8 µM [rising, single point]

SMILES: COc1ccc(CNC(=O)CNC(=O)c2cccs2)c(OC)c1
- AC50 [1]: 0.1 µM [rising, full curve, poor fit]

SMILES: CCOC(=O)CNc1c(-c2ccccc2)nc2ccc(Cl)cn12
- AC50 [1]: 10 µM [falling, partial curve]
- AC50 [2]: 12.6 µM [rising, partial curve, poor fit]

SMILES: COCCNC(=S)N1CCN(c2ccc(Cl)cc2)CC1
- AC50 [1]: 20 µM [rising, single point]

SMILES: COc1ccc(S(=O)(=O)Nc2nc3ccccc3nc2NCC2CCCO2)cc1 (configuration not stated)
- AC50 [1]: 6.31 µM [rising, single point]

SMILES: COc1ccc2sc(-c3ccc(SC)cc3)c(C#CCO)c2c1
- AC50 [1]: 0.0651 µM [rising, full curve, poor fit]

SMILES: COc1ccc(S(=O)(=O)N(C)CC(=O)N2CCC(C(N)=O)CC2)cc1Cl
- AC50 [1]: 32.6 µM [rising, single point]

SMILES: CN(Cc1nc(Cc2cccc(F)c2)no1)CC1COCCO1 (configuration not stated)
- AC50 [2]: 10 µM [rising, partial curve, poor fit]

SMILES: COc1cc(/C=N/NC(N)=S)cc(Br)c1OCc1ccccc1F
- AC50 [1]: 6.51 µM [falling, partial curve]

SMILES: CS(=O)(=O)N(CC(=O)N1CCN(c2ccccc2)CC1)c1ccc(Cl)c(C(F)(F)F)c1
- AC50 [1]: 0.00517 µM [rising, full curve, poor fit]

SMILES: O=S(=O)(Nc1nc2ccccc2nc1NCC1CCCO1)c1ccc(F)cc1 (configuration not stated)
- AC50 [1]: 11.2 µM [falling, partial curve, poor fit]

SMILES: O=C(Nc1ccccc1)c1cccc2c(Br)cccc12
- AC50 [1]: 2.82 µM [rising, single point]

SMILES: C=CCN1C(=S)N[C@@H]2CS(=O)(=O)C[C@@H]21
- AC50 [1]: 1.41 µM [falling, full curve, poor fit]

SMILES: Cc1cc(OCc2nc3ccccc3s2)ccc1N
- AC50 [1]: 10 µM [falling, partial curve]

SMILES: CCN(Cc1nc2ccccc2c(=O)[nH]1)C(=O)c1cc(C2CC2)nn1-c1ccccc1
- AC50 [1]: 11.6 µM [falling, partial curve, poor fit]

SMILES: Cc1cc(C)cc(NC(=O)CCc2ccc(C)o2)c1
- AC50 [1]: 3.98 µM [falling, single point]

SMILES: COc1cccc(-c2nc(-c3ccc(NC(=O)Cc4ccccc4OC)cc3)no2)c1
- AC50 [1]: 1.64 µM [falling, partial curve, poor fit]

SMILES: C/C(=N/OCO/N=C(\C)c1ccc(F)cc1F)c1ccc(F)cc1F
- AC50 [1]: 0.92 µM [rising, full curve, poor fit]

SMILES: Cc1ccc(S(=O)(=O)N2CCOCC2)cc1NC(=O)COC(=O)C1=COCCO1
- AC50 [1]: 18.4 µM [falling, partial curve, poor fit]

SMILES: O=C(NCCc1ccccc1)/C(=N\O)c1ccccc1
- AC50 [1]: 11.2 µM [falling, single point]

SMILES: Cc1nccn1-c1c([N+](=O)[O-])c(=O)n(C)c2ccccc12
- AC50 [1]: 35.5 µM [falling, single point]

SMILES: Cc1ccc(-c2csc(Nc3ccccn3)n2)cc1
- AC50 [1]: 11.2 µM [falling, single point]

SMILES: Cc1ccc(-c2ccc(CCC(=O)O)n2-c2ccc(C(=O)O)cc2)cc1
- AC50 [1]: 10 µM [falling, partial curve, poor fit]

SMILES: Nc1ncnc2c1ncn2CCNCCc1ccccc1
- AC50 [1]: 25.9 µM [rising, partial curve, poor fit]

SMILES: O=C(O)c1csc(-c2cccc(Cl)c2)n1
- AC50 [1]: 11.2 µM [rising, partial curve]

SMILES: CC(C)C(=O)OC/C(O)=C(\C#N)c1nc2ccccc2[nH]1
- AC50 [1]: 25.1 µM [falling, single point]
- AC50 [2]: 12.6 µM [rising, partial curve, poor fit]

SMILES: CSc1ccccc1OCc1cc(C(=O)N(C)C(C)c2ccccn2)no1 (configuration not stated)
- AC50 [1]: 35.5 µM [falling, single point]

SMILES: CC(=O)NCCC(=O)N(Cc1ccccc1)c1nc2c(C)cccc2s1
- AC50 [1]: 12.6 µM [falling, partial curve, poor fit]

SMILES: Cc1ccc(OC(=O)COc2ccccc2)c(-n2nc3ccccc3n2)c1
- AC50 [1]: 29.1 µM [rising, single point]
